These are yes or no findings as the source states them, for the method shown. Some results given as binding are weak or reduced against the parent protein; the word gives no strength.
Target: T1, CD47 in CT-26 cells (mouse (endogenous in CT-26)) (UniProt Q61735)
T1 sequence: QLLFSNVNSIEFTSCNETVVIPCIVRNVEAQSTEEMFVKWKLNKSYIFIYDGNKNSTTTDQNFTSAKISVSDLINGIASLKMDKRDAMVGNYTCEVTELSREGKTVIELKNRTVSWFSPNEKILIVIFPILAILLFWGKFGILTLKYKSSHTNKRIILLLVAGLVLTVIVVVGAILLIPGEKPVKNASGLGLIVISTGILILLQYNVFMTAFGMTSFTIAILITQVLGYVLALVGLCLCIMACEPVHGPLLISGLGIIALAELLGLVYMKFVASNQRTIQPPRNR
Test: competition binding assay on cells (fluorescence of unbound labelled antibody in the supernatant); CT-26 cells co-incubated with Cy5.5-labeled anti-CD47 antibody (20 ng/mL) and three-fold dilutions of bacterial lysate (8.47 x 10^-5 to 5.00 mg/mL), 2 h at 4 °C

B1: anti-CD47 nanobody (CD47nb) (VHH)
VHH: QVQLVESGGGLVEPGGSLRLSCAASGIIFKINDMGWYRQAPGKRREWVAASTGGDEAIYRDSVKDRFTISRDAKNSVFLQMNSLKPEDTAVYYCTAVISTDRDGTEWRRYWGQGTQVTVSS
- binding: binds
